Assay results published in PubChem BioAssay AID493201 (National Center for Advancing Translational Sciences (NCATS), 2011).
Inconclusive results, whose numbers are uncertain, are shown with a selection of clear calls. A potency beside an inconclusive call is a rough fit, not a confirmed value. Calls of active or inactive are those of the source. Calls come from the whole dose curve; as a rule, active = well fitted activation curve with a large enough effect; inconclusive = small, poorly fitted or top-dose-only effect; inactive = no such curve, though single readings can be large or run the other way.

Test: qHTS Assay for Identifying a Potential Treatment of Ataxia-Telangiectasia: Secondary assay (no NCS) hit validation;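 note: phosphorylated KAP1 signal as a proxy for ATM-like kinase activity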
Details: A-T patient fibroblasts, AlphaLISA, no DNA damage added, 90 min; series mostly up to 76.9 µM
Summary of the method: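 Without NCS-induced DNA breaks, ATM-like activity scored as phospho-KAP1 AlphaLISA signal (pKAP1/total KAP1 bead pair) in ATM-null […] fibroblasts; compound series up to 76.7 uM final, 37C incubation, lysates read on AlphaScreen protocol.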
Potency is the fitted concentration of half-maximal effect.

| SMILES | Potency |
| --- | --- |
| Oc1cccc(NC(=S)N=Nc2c(O)[nH]c3ccccc23)c1 | inconclusive: 26 µM [activator, partial curve] |
| CN(Cc1ccccc1)C(=O)c1cccc(N2C(=O)C3CC=CCC3C2=O)c1 (configuration not stated) | inactive |
| CCCN1CN(c2ccccc2)C(=S)N(c2ccccc2)C1 | inconclusive: 0.0065 µM [activator, full curve, poor fit] |
| CCn1c(N2CCN(CC(=O)c3c[nH]c4ccccc34)CC2)nc2c1c(=O)[nH]c(=O)n2C | inconclusive: 0.0116 µM [activator, full curve, poor fit] |
| CCNC(=S)N(CCc1c(C)[nH]c2ccccc12)Cc1cccnc1 | inactive |
| COc1cccc(/C=N/NC(=O)c2cc3cc([N+](=O)[O-])ccc3s2)c1O | active: 46.3 µM |
| CCn1c2ccccc2c2c3ncc4cccn4c3ccc21 | active: 36.8 µM |
| O=C(COc1ccccc1Cl)NCCCNC(=O)c1cnccn1 | inconclusive: 11.6 µM [activator, full curve] |
| FC(F)(F)c1cccc(OCC2CNC(=S)O2)c1 (configuration not stated) | inconclusive: 36.8 µM [activator, single point] |
| CCOC(=O)c1ccc(-n2c(C)nc3ccc(Br)cc3c2=O)cc1 | inconclusive: 32.8 µM [activator, partial curve] |
| CCn1c(=NC(=O)CN2C(=O)CCC2=O)sc2c(OC)ccc(OC)c21 | active: 0.923 µM |
| Cc1ccc(C)c(-n2c(SCC(=O)NC(C(=O)O)C(C)C)nnc2-c2cccc(Cl)c2)c1 (configuration not stated) | active: 46.3 µM |
